Source: the supplement of paper PMC11006884
The list shows a part of the results, in another mix than the full data.

By UniProt entry, the sequences of proteins in these tests, tags left out. Where a name states a change or a piece, a line headed by the entry shows the natural chain unless it says otherwise.
UniProt Q96F86: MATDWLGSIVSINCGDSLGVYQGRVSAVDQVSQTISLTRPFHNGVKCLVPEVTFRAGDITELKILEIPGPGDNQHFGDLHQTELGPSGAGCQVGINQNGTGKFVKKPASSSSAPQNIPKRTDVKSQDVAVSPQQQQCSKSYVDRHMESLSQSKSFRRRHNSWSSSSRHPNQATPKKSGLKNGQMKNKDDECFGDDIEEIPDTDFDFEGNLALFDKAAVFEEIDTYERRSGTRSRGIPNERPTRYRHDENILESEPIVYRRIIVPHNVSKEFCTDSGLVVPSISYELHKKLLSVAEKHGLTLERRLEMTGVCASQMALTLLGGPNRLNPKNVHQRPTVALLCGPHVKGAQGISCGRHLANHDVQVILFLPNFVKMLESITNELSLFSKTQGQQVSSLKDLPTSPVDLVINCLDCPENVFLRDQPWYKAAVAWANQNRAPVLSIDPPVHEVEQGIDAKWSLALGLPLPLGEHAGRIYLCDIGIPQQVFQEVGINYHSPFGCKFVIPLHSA
UniProt Q96GX9: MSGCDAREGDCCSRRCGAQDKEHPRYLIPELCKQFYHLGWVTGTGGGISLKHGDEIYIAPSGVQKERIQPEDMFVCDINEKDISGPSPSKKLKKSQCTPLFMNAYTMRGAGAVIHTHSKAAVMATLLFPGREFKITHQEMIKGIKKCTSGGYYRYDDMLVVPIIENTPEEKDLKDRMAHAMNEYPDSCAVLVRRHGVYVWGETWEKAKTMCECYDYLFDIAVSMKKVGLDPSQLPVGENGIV
UniProt Q93052: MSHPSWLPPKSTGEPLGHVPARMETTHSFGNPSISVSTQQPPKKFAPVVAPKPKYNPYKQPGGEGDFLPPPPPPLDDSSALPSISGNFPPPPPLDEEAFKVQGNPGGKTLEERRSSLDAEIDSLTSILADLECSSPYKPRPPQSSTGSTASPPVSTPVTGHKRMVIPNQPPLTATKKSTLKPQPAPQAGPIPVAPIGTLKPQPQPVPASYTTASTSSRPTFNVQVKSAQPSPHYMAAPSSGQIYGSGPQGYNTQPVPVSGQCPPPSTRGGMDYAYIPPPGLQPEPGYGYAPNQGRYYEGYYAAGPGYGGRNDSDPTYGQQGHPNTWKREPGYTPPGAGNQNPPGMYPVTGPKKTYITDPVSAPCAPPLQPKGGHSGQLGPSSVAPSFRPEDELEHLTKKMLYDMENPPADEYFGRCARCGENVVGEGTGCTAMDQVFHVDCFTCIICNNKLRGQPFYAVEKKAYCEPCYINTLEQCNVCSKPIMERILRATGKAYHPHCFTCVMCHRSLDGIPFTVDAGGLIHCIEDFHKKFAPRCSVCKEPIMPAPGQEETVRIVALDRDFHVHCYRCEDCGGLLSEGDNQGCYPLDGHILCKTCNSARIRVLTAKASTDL
UniProt Q96F63: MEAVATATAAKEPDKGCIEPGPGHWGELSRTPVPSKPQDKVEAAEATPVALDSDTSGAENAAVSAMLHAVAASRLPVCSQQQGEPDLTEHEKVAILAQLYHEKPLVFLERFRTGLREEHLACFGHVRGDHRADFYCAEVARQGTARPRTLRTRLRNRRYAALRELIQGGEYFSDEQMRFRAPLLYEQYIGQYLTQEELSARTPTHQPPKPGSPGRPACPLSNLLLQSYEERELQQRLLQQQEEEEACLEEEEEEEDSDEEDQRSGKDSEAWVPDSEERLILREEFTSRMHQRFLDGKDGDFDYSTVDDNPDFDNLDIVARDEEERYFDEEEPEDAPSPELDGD
UniProt Q96DG6: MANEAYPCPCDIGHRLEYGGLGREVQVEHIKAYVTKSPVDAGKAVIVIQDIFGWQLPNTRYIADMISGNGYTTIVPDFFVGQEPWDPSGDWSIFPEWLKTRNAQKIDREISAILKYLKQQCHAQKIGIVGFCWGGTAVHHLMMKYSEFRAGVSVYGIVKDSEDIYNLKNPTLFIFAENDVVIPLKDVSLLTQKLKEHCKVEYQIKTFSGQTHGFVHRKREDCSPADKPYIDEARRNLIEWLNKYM
UniProt Q96EP5: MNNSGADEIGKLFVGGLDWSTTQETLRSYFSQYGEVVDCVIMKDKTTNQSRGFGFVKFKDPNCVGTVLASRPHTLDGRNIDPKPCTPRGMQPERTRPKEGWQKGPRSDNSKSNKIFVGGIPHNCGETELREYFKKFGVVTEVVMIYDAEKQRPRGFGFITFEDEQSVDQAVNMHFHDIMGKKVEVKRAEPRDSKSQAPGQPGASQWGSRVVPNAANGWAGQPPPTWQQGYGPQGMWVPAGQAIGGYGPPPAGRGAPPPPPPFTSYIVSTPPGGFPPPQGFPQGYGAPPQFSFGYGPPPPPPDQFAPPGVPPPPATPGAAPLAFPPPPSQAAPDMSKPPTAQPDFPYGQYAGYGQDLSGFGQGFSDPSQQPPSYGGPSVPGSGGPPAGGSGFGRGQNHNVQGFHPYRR
UniProt Q96GD4, whole entry: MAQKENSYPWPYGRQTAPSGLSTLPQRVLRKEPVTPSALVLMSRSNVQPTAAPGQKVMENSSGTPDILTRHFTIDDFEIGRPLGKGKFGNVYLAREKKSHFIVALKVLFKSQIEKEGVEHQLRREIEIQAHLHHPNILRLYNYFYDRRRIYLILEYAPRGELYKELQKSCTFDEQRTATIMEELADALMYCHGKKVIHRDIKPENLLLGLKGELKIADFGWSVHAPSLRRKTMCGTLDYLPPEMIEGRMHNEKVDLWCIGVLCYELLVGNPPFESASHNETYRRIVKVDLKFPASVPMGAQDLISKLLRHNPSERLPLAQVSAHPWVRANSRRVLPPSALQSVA
UniProt Q96G74: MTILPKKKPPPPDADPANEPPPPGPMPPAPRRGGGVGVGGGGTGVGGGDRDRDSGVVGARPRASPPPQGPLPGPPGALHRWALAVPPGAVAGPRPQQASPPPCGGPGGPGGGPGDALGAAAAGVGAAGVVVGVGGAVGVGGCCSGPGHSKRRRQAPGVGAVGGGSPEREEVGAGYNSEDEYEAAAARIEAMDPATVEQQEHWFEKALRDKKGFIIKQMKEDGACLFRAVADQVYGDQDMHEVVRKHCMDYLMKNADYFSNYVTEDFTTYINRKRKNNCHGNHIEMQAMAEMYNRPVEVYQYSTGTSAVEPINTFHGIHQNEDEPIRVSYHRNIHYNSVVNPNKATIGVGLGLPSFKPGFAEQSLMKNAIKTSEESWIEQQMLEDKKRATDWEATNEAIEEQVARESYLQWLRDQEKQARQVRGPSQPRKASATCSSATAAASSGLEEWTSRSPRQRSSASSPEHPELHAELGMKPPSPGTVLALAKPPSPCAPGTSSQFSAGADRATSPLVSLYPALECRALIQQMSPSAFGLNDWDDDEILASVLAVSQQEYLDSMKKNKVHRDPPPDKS
UniProt Q96BD8: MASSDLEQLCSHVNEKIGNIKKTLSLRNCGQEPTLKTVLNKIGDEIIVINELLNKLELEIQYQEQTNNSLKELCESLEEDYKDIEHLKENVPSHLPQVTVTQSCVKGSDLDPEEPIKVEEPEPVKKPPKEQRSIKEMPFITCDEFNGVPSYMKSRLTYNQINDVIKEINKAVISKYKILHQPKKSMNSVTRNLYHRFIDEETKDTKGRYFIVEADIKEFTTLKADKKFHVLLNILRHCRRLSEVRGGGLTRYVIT
UniProt Q92917: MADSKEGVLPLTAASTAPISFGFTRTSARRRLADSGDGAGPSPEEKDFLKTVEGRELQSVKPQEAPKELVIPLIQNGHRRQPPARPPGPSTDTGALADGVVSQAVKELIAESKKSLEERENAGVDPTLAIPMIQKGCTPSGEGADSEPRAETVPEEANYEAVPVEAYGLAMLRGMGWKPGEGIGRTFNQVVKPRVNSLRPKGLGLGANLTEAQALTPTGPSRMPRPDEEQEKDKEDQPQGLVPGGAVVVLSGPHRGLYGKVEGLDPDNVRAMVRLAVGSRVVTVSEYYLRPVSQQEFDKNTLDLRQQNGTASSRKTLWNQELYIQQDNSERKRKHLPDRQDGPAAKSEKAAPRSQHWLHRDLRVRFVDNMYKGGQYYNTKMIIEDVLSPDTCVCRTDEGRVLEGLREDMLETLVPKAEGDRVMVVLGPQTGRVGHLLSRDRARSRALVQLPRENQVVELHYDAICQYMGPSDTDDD
UniProt Q96AT9: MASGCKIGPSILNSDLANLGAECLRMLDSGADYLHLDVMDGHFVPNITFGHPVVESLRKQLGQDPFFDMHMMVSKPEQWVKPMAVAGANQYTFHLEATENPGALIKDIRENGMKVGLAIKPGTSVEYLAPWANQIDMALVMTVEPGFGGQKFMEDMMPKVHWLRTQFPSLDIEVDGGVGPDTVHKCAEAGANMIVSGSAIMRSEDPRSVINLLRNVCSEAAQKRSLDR
UniProt Q92879: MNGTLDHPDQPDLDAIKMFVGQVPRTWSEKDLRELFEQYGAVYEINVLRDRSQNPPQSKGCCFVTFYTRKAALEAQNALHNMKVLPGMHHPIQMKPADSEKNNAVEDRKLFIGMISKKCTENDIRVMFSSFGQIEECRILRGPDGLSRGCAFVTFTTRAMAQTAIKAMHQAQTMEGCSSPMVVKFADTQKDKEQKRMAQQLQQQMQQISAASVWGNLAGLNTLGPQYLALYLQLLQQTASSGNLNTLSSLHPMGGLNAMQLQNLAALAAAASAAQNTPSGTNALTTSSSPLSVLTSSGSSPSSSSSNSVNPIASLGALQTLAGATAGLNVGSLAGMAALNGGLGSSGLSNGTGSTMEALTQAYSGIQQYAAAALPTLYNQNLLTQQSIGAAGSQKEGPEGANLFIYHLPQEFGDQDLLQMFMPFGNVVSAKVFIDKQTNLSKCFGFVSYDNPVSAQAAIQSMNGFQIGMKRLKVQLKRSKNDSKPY
UniProt Q969Z0: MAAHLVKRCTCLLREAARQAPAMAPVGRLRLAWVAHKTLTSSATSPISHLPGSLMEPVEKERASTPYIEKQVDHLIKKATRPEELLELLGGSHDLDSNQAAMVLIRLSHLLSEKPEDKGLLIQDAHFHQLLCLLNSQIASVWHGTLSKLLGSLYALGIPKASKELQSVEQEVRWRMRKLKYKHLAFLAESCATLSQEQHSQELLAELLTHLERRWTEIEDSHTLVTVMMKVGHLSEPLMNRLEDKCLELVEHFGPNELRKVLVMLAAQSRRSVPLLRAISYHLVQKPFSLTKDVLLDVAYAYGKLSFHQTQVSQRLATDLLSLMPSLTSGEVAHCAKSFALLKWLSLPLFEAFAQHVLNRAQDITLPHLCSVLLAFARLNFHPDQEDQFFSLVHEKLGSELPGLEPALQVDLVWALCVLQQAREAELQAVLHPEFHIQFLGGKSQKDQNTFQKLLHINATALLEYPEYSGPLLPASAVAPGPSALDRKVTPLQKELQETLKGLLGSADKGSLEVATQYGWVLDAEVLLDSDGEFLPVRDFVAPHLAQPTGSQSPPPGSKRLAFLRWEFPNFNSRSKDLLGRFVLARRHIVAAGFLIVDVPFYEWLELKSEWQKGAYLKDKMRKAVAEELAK
UniProt Q92620: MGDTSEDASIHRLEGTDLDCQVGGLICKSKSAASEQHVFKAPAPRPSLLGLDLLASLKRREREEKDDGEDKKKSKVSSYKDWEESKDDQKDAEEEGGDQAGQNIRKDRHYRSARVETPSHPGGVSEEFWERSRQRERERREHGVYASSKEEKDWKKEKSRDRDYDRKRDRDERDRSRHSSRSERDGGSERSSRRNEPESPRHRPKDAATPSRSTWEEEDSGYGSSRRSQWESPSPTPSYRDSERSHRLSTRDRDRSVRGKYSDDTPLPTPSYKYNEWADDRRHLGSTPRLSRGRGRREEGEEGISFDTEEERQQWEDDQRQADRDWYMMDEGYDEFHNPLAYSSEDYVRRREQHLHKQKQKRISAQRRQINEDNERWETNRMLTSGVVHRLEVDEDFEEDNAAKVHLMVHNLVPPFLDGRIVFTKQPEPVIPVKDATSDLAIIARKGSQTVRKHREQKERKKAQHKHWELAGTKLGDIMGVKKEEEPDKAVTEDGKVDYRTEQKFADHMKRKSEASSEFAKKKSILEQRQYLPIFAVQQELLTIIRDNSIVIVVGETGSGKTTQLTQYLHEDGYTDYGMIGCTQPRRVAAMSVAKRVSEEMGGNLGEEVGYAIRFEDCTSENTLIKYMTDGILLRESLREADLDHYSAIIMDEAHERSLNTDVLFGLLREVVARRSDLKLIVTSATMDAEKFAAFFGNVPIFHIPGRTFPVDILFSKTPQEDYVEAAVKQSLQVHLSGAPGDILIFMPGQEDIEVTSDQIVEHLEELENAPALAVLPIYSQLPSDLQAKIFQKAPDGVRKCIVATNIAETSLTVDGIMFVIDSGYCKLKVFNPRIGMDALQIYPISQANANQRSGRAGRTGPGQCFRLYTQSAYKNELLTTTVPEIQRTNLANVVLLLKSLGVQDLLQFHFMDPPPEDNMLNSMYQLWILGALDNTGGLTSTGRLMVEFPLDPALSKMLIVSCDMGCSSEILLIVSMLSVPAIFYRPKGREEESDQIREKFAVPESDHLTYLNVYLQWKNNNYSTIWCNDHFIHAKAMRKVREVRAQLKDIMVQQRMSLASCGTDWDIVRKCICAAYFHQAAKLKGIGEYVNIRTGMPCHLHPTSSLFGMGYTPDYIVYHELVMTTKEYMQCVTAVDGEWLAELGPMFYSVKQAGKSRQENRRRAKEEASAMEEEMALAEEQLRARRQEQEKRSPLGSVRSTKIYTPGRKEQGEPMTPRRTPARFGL

Compound: COC(=O)C#Cc1ccccc1 [methyl 3-phenylpropiolate]
Experiment: log2 ratio of iodoacetamide-alkyne labeling of the cysteine site, DMSO over compound (competition); higher = stronger covalent engagement of the cysteine by the compound, active = 1 or more
Settings: 500 µM; treatment time 1 h; system: HEK293T cell lysate
Method in brief: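 Three replicates, each with duplicate channels, were prepared from HEK293T lysate (2 mg/mL) treated with vehicle or electrophile at 500 µM for 1 h at ambient temperature. Iodoacetamide alkyne was then applied for 1 h, and samples were clicked to sCIP-TMT reagents, pooled, trypsin-digested overnight at 37 °C, enriched on streptavidin, acid-eluted and analysed on Orbitrap Eclipse LC-MS/MS with FAIMS, with FragPipe quantification. The log2 competition ratio per cysteine is the mean control-channel divided by the mean compound-channel reporter intensity. Cysteines quantified in only one replicate were left out.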

| Target | log2 ratio of iodoacetamide-alkyne labeling |
| --- | --- |
| EDC3 C272 (UniProt Q96F86) | inactive: 0.0953 |
| APIP C147 (UniProt Q96GX9) | inactive: -0.0469 |
| LPP C465 (UniProt Q93052) | inactive: 0.118 |
| CCDC97 C136 (UniProt Q96F63) | inactive: 0.0442 |
| ATXN7L3B C75 (UniProt Q96GX2) | active: 1.03 |
| LPP C524 (UniProt Q93052) | inactive: 0.117 |
| ZNF428 C96 (UniProt Q96B54) | inactive: 0.191 |
| MCRS1 C84 (UniProt Q96EZ8) | inactive: 0.916 |
| CMBL C8 (UniProt Q96DG6) | inactive: 0.444 |
| UniProt Q96EK5_C10 | inactive: -0.101 |
| UniProt Q969V6_C326 | active: 1.42 |
| UniProt Q92888_C892 | inactive: 0.0678 |
| DAZAP1 C39 (UniProt Q96EP5) | inactive: 0.0955 |
| FMC1 C68 (UniProt Q96HJ9) | inactive: 0.229 |
| UniProt Q96GD4_C234 | inactive: 0.62 |
| KAT5 C11 (UniProt Q92993) | inactive: -0.309 |
| OTUD5 C434 (UniProt Q96G74) | inactive: 0.598 |
| UniProt Q96FZ2_C266 | inactive: 0.0204 |
| EDC3 C47 (UniProt Q96F86) | inactive: 0.179 |

| Target | log2 ratio of iodoacetamide-alkyne labeling |
| --- | --- |
| UniProt Q969X6_C21 | inactive: -0.136 |
| DCPS C37 (UniProt Q96C86) | inactive: 0.171 |
| LPP C468 (UniProt Q93052) | inactive: 0.118 |
| UniProt Q96BD8_C142 | inactive: 0.261 |
| GPKOW C137 (UniProt Q92917) | inactive: 0.23 |
| R3HDM4 C29 (UniProt Q96D70) | inactive: 0.31 |
| AKT1S1 C61 (UniProt Q96B36) | inactive: 0.266 |
| PDXP C26 (UniProt Q96GD0) | inactive: 0.0486 |
| AKAP1 C376 (UniProt Q92667) | active: 1.15 |
| RPE C23 (UniProt Q96AT9) | inactive: 0.341 |
| TNPO1 C297 (UniProt Q92973) | inactive: 0.00637 |
| SIPA1 C732 (UniProt Q96FS4) | inactive: 0.266 |
| UniProt Q92879_C61 | inactive: -0.0617 |
| UBE2F C116 (UniProt Q969M7) | inactive: -0.308 |
| TBRG4 C335 (UniProt Q969Z0) | inactive: 0.436 |
| DHX38 C20 (UniProt Q92620) | active: 1.36 |
| RAD50 C633 (UniProt Q92878) | inactive: 0.264 |
| USP9X C577 (UniProt Q93008) | inactive: -0.0714 |

Some of the entries so far, with bars between the fields.
Target | log2 ratio of iodoacetamide-alkyne labeling
GPKOW C137 (UniProt Q92917) | inactive: 0.23
SIPA1 C732 (UniProt Q96FS4) | inactive: 0.266
